Laboratory results as given in publication PMC12529230, “The Lrs14‐Like AbfR1 Homolog From Metallosphaera sedula Is a Nucleoid‐Organizing Protein” (MicrobiologyOpen, 2025).
These are yes or no findings as the source states them, for the method shown. Some results given as binding are weak or reduced against the parent protein; the word gives no strength.

Biological target: AbfR1 Ms (endogenous, M. sedula cell extract) (Metallosphaera sedula (endogenous in M. sedula DSM5348)) (UniProt A4YIR2)
Test: SDS-PAGE and Western blot (SDS-resistant oligomers); M. sedula cell extracts from four growth phases, without and with 100 mM DTT, anti-AbfR1 Ms immunoblot

B1: AbfR1 Ms (recombinant, C-terminal His-tag) (natural protein, Metallosphaera sedula, UniProt A4YIR2 1-115, looked up)
chain: MITELAERNILLKRFLMVGYGLSEADVEAFIRIIKGSEGRDVDYIASELGISKSRASLILKRLSDAGLVTKQKSTGSKGGRPKYVYRVDRNEVIEKMKIRASELCSDLSSIISGL
notes: 115 amino acids, estimated MW 12.7 kDa; codon-optimized synthetic gene fragment (446 bp) cloned NdeI/XhoI into pET24a; No tag cleavage is described; A disulfide bridge between the two chains is proposed (C105, from an AlphaFold model and DTT sensitivity); also called Lrs14-like AbfR1 homolog from Metallosphaera sedula; HhcR; source: E. coli Rosetta (DE3), pET24a; purified (heat treatment 70°C, …)
binding: binds
